Measurements reported in PubChem BioAssay AID686938 (Drosophila RNAi Screening Center, 2013).
Purpose: 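Looking for CRAC channel components and the factors controlling them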 (primary screen). System: Drosophila S2R+ cells. Knock-down reagent: long dsRNA against Drosophila genes, about 0.25 µg dsRNA per well, roughly 10,000 cells. Duration: 5 days of knock-down before the calcium assay. Conditions: thapsigargin (SERCA pump blocker) to empty calcium stores; entry signal taken 4 min after adding it. Detection: 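Duplicate raw fluo-4 intensities per well from a plate reader, at rest and four minutes after thapsigargin emptied calcium stores; entry-to-rest ratio filled for only some wells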. Direction: calcium entry signal: higher = stronger calcium signal after store depletion; resting calcium signal: higher = higher resting calcium signal. Rule for the call: 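Called when the plate z-score of the entry-to-rest ratio, mean of duplicates, falls below −3; wells with low overall dye signal (Fmax z below −2) or more than five off-targets excluded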. Meaning of the calls: active = strongly reduced calcium entry; inactive = no strong reduction.
In all, the deposit lists about 23,000 reagents; shown is an unselected part of those with a known target gene and a result. In the full data, 75 (0.33%) got an active call. 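Raw plate signals without normalisation; calls rest on plate z-scores that were not deposited; ratio present for only 364 wells.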 A plus sign joins genes that one reagent is predicted to hit. The record does not give: the dose of the treatment.

| Target gene | DRSC id | calcium entry signal, replicate 1 (fluorescence units) | calcium entry signal, replicate 2 (fluorescence units) | resting calcium signal, replicate 1 (fluorescence units) | resting calcium signal, replicate 2 (fluorescence units) | outcome |
| --- | --- | --- | --- | --- | --- | --- |
| CG4440 | DRSC02747 | 6.32e7 | 3.72e7 | 2.60e7 | 2.03e7 | inactive |
| Rab3GAP1 (RAB3 GTPase activating protein subunit 1) | DRSC00291 | 3.81e7 | 5.01e7 | 1.84e7 | 2.00e7 | inactive |
| Rab3GAP1 (RAB3 GTPase activating protein subunit 1) | DRSC00703 | 4.05e7 | 4.98e7 | 1.98e7 | 2.06e7 | inactive |
| CG15369 | DRSC18041 | 2.75e7 | 4.27e7 | 1.40e7 | 1.97e7 | inactive |
| rho-7 (rhomboid-7) | DRSC07304 | 3.12e7 | 3.59e7 | 1.76e7 | 1.63e7 | inactive |
| CG9143 | DRSC07338 | 3.26e7 | 2.57e7 | 1.63e7 | 1.44e7 | inactive |
| DnaJ-H (DnaJ homolog) | DRSC03273 | 4.75e7 | 3.26e7 | 2.12e7 | 1.66e7 | inactive |
| rpk (ripped pocket) | DRSC12386 | 3.87e7 | 4.04e7 | 1.77e7 | 2.62e7 | inactive |
| rpk (ripped pocket) | DRSC21656 | 4.26e7 | 4.10e7 | 2.34e7 | 2.08e7 | inactive |
| CG34161 | DRSC01132 | 4.23e7 | 5.43e7 | 2.09e7 | 2.65e7 | inactive |
| CG2712 | DRSC18589 | 3.42e7 | 4.17e7 | 1.57e7 | 1.91e7 | inactive |
| tra (transformer) | DRSC11405 | 3.95e7 | 5.21e7 | 1.91e7 | 2.06e7 | inactive |
| Cyp317a1 (Cytochrome P450 317a1) | DRSC07366 | 3.12e7 | 4.26e7 | 1.68e7 | 2.06e7 | inactive |
| DMAP1 (DNA methyltransferase 1 associated protein 1) | DRSC06044 | 3.65e7 | 3.42e7 | 2.31e7 | 2.29e7 | active |
| CG9837 | DRSC16573 | 5.69e7 | 3.72e7 | 2.63e7 | 1.84e7 | inactive |
| CG8562 | DRSC10995 | 2.67e7 | 4.60e7 | 1.31e7 | 1.78e7 | inactive |
| CG14346 | DRSC00376 | 3.70e7 | 4.07e7 | 1.74e7 | 1.85e7 | inactive |
| Phs (Phaser) | DRSC10827 | 4.35e7 | 5.81e7 | 2.02e7 | 3.91e7 | inactive |
| Cyp4p3 (Cytochrome P450 4p3) | DRSC07374 | 6.28e7 | 4.72e7 | 2.71e7 | 1.99e7 | inactive |
| GstD9 (Glutathione S transferase D9) | DRSC14185 | 3.71e7 | 3.13e7 | 1.84e7 | 1.67e7 | inactive |
| Uro (Urate oxidase) | DRSC03469 | 2.06e7 | 2.74e7 | 1.01e7 | 1.25e7 | inactive |
| Cyp1 (Cyclophilin 1) | DRSC20234 | 4.09e7 | 4.59e7 | 1.83e7 | 2.33e7 | inactive |
| CG8564 | DRSC10997 | 5.15e7 | 3.21e7 | 3.38e7 | 1.45e7 | inactive |
| Sec5 (Secretory 5) | DRSC00714 | 4.10e7 | – | 2.35e7 | – | inactive |
| pbl (pebble) | DRSC11381 | 5.10e7 | 3.71e7 | 3.78e7 | 2.00e7 | inactive |
| CG17028 | DRSC10239 | 4.37e7 | 5.29e7 | 2.05e7 | 2.24e7 | inactive |
| CG33333 | DRSC13233 | 4.22e7 | 2.31e7 | 1.87e7 | 1.10e7 | inactive |
| Rad9 | DRSC11263 | 4.20e7 | 4.76e7 | 1.80e7 | 3.45e7 | inactive |
| CG10274 | DRSC09716 | 1.19e7 | 4.59e7 | 1.13e7 | 2.91e7 | inactive |
| Cox11 (Cytochrome c oxidase copper chaperone COX11) | DRSC22692 | 3.88e7 | 4.00e7 | 1.87e7 | 1.64e7 | inactive |
| CG17329 | DRSC01926 | 4.78e7 | 3.46e7 | 2.11e7 | 1.73e7 | inactive |
| CG6638 | DRSC10680 | 2.78e7 | 4.58e7 | 1.46e7 | 2.09e7 | inactive |
| Dh31 (Diuretic hormone 31) | DRSC02196 | 3.92e7 | 5.90e7 | 1.93e7 | 2.41e7 | inactive |
| fliI (flightless I) | DRSC20578 | 2.84e7 | 2.80e7 | 1.42e7 | 1.50e7 | inactive |
| CG15169 | DRSC02470 | 3.58e7 | 5.20e7 | 1.81e7 | 2.08e7 | inactive |
| CG12171 | DRSC12200 | 4.42e7 | 2.98e7 | 2.11e7 | 1.49e7 | inactive |
| ppk20 (pickpocket 20) | DRSC16260 | 3.66e7 | 5.27e7 | 1.84e7 | 1.82e7 | inactive |
| Mur89F (Mucin related 89F) | DRSC15544 | 3.52e7 | 4.87e7 | 1.62e7 | 5.60e7 | inactive |
| CG9795 | DRSC12336 | 4.14e7 | 5.03e7 | 1.92e7 | 3.39e7 | inactive |
| Rae1 | DRSC04577 | 2.58e7 | – | 1.52e7 | – | inactive |
| CG31253 + CG31131 | DRSC13839 | 4.13e7 | 3.39e7 | 1.97e7 | 1.76e7 | inactive |
| CG6073 | DRSC15962 | 3.18e7 | 5.16e7 | 1.48e7 | 2.60e7 | inactive |
| CG6073 | DRSC22742 | 4.15e7 | 3.68e7 | 2.36e7 | 1.91e7 | inactive |
| Jon25Biii (Jonah 25Biii) | DRSC03115 | 4.14e7 | 3.62e7 | 1.93e7 | 1.80e7 | inactive |
| lola (longitudinals lacking) | DRSC05220 | 5.20e7 | 3.29e7 | 3.50e7 | 1.54e7 | inactive |
| lola (longitudinals lacking) | DRSC05221 | 4.09e7 | 2.87e7 | 2.92e7 | 1.26e7 | inactive |
| lola (longitudinals lacking) | DRSC05222 | 5.16e7 | 2.73e7 | 2.35e7 | 1.13e7 | inactive |
| lola (longitudinals lacking) | DRSC05223 | 4.97e7 | 2.55e7 | 3.87e7 | 1.11e7 | inactive |
| lola (longitudinals lacking) | DRSC05224 | 3.03e7 | 4.94e7 | 1.41e7 | 2.01e7 | inactive |
| lola (longitudinals lacking) | DRSC06738 | 4.44e7 | 4.04e7 | 1.93e7 | 1.91e7 | inactive |
| lola (longitudinals lacking) | DRSC06739 | 4.97e7 | 4.02e7 | 2.34e7 | 1.80e7 | inactive |
| lola (longitudinals lacking) | DRSC06740 | 4.35e7 | 4.28e7 | 1.87e7 | 2.07e7 | inactive |
| lola (longitudinals lacking) | DRSC06741 | 3.90e7 | 4.23e7 | 1.74e7 | 1.64e7 | inactive |
| lola (longitudinals lacking) | DRSC06742 | 5.12e7 | 3.17e7 | 2.54e7 | 1.62e7 | inactive |
| lola (longitudinals lacking) | DRSC07646 | 4.07e7 | 4.27e7 | 1.76e7 | 1.95e7 | inactive |
| lola (longitudinals lacking) | DRSC07647 | 4.89e7 | 3.92e7 | 2.73e7 | 1.73e7 | inactive |
| Pdk (Pyruvate dehydrogenase kinase) | DRSC07504 | 3.33e7 | 2.70e7 | 1.42e7 | 1.27e7 | inactive |
| CG9393 | DRSC16486 | 3.13e7 | 4.30e7 | 1.38e7 | 1.77e7 | inactive |
